Data published in the supplement of paper PMC5949888.
Most values lie at the floor of the assay. Slopes are relative: functional sequences can read slightly below zero.

What follows are substances tested on Saccharomyces cerevisiae PS128 hsf1 delta, HSF1(1-493) fusion (assay: growth estimate (transactivation domain function in HSF1 fusion, heat-shock survival) (a.u. (slope of normalised read count over time)); higher = stronger growth at 37°C, i.e. more transactivation activity). Conditions: library: random library.
LVLSGGVWLIARTDLGDSGP gave a growth estimate of under -0.25.
Substance EDDSICNKHGRVGST has a growth estimate of under -0.25.
Substance VGGMSPFTRKWYPEKPLLTA has a growth estimate of under -0.25.
WTRGQSSSISPLACSHA showed a growth estimate of under -0.25.
STEMNCTTGRLGFQTVEECG was tested, and the growth estimate was under -0.25.
LHST gave a growth estimate of under -0.25.
Work on ARAPRRPLDLEIQDEAACRQ yielded a growth estimate of under -0.25.
Substance FDGHVLKCRDVGLVQFANLT has a growth estimate of under -0.25.
Work on GMGTDRLGVRDTSLETRSRG yielded a growth estimate of under -0.25.
GTGPIVGSPSRCGI was tested, and the growth estimate was under -0.25.
For GHSAS, the growth estimate was under -0.25.
For MSQ, the growth estimate was under -0.25.
In the case of VTRPDEWREIKGAHGGGTVQ, the growth estimate is reported as under -0.25.
Work on RAEWQTRGGPRVGAR yielded a growth estimate of under -0.25.
RAIIDTQQEICGVKVAIKLA showed a growth estimate of -0.246.
NRLGFQR showed a growth estimate of under -0.25.
YVSPPRPPRESL showed a growth estimate of under -0.25.
For GVSTSVYGRPYE, the growth estimate was under -0.25.
With EFSRVRRQLQTSLKSG the growth estimate was under -0.25.
Substance SIKGNAEVNACMDLAQTSPR has a growth estimate of under -0.253.
With LDPGR the growth estimate was under -0.25.
In the case of AVTESSTAGALCAGPTIFAP, the growth estimate is reported as under -0.25.
QSRLRSIACVFSSGWGPPHR showed a growth estimate of under -0.25.
GIIKSNQSLEAAHRVTFGSD showed a growth estimate of under -0.25.
QGGPVYNMQSKAKGKGGRAA gave a growth estimate of under -0.25.
In the case of KRKIWHHSTPSGA, the growth estimate is reported as under -0.25.
Substance CIIQWGPLRLRYLI has a growth estimate of under -0.25.
Work on GIRVAQPIQGVMLPGRTWEH yielded a growth estimate of under -0.25.
In the case of RGDEWRSKPLDIAGV, the growth estimate is reported as under -0.25.
For IFNMSSLDLGDSNENQSAGA, the growth estimate was under -0.25.
With FCRRHY the growth estimate was -0.246.
MGLSSFNDRKSCDVTLRSSS gave a growth estimate of under -0.25.
HGTEYATY was tested, and the growth estimate was under -0.25.
Substance TSMTITLLVESFKRLLCSSA has a growth estimate of under -0.25.
For IPLQQ, the growth estimate was under -0.25.
Work on RPNFAL yielded a growth estimate of under -0.25.
PWSEIIWPGEMHRKFEPKPM was tested, and the growth estimate was under -0.25.
In the case of LPLTLTHVLLISK, the growth estimate is reported as under -0.25.
GADGRVFYS gave a growth estimate of under -0.25.
With VGAWYRPCRSRLLIVASAEP the growth estimate was -0.205.
For ITCGRKALGC, the growth estimate was under -0.25.
With RDLSDKG the growth estimate was under -0.25.
For RNNS, the growth estimate was under -0.25.
With RHSQGHSIFLDRTHILSFGR the growth estimate was under -0.25.
DGKCASREPAFDGTTDSFSR was tested, and the growth estimate was under -0.25.
Substance TDYDSEYQGSRNAMGQLYRT has a growth estimate of under -0.25.
For SPGYTVPLCFYESLCSSGPQ, the growth estimate was under -0.25.
IFGHVGRVGFYSQRGFVN gave a growth estimate of under -0.25.
LMGCWRRGQRGLPLITRWAF showed a growth estimate of under -0.25.
CASNYTGLDAVT gave a growth estimate of under -0.25.
Work on TAEVSTWHGKECDFLEHSVR yielded a growth estimate of -0.0702.
In the case of GKIRRRT, the growth estimate is reported as under -0.25.
Work on WFDAKPRHGMKPTVNWLRQI yielded a growth estimate of under -0.25.
In the case of VLRRVFQGYG, the growth estimate is reported as under -0.25.
Substance IVRAWRLHRGSCDLNHET has a growth estimate of under -0.25.
MLHDSEICGHGAPNRDSCFF showed a growth estimate of under -0.25.
In the case of ESAYRYEACRLRLGGACGFA, the growth estimate is reported as under -0.25.
In the case of GIRVRRQ, the growth estimate is reported as under -0.25.
In the case of TWP, the growth estimate is reported as under -0.25.
For AGSK, the growth estimate was under -0.25.
In the case of QTSS, the growth estimate is reported as under -0.25.
VLPA showed a growth estimate of under -0.25.
YPNAVIFSLRAAREPLPCVV gave a growth estimate of under -0.25.
Work on PRRPVLVVLS yielded a growth estimate of under -0.25.
With PLVIRVISSKTRPAVSCPHK the growth estimate was under -0.25.
IYRVVY was tested, and the growth estimate was under -0.25.
ALARPVY showed a growth estimate of under -0.25.
GFGPLFITGA gave a growth estimate of under -0.25.
In the case of LKLVFVRGSRNGSIHW, the growth estimate is reported as under -0.25.
Work on FTYYFRCRCFAPNHVLLDG yielded a growth estimate of under -0.25.
With AFDSGMW the growth estimate was under -0.25.
In the case of IYVCC, the growth estimate is reported as under -0.25.
CVSWLPVVNVLSLSSYHTGA showed a growth estimate of under -0.25.
In the case of DWCLG, the growth estimate is reported as under -0.25.
Work on FAWMRSANAGLSSQSSF yielded a growth estimate of under -0.25.
For VTHTVPQT, the growth estimate was under -0.25.
For KTCAVSSQVSSCLDPDHQAS, the growth estimate was under -0.25.
Substance QNPGKHMFAPCQIECAGQMV has a growth estimate of under -0.25.
In the case of DRFRLPIGFEGP, the growth estimate is reported as under -0.25.
Substance YRRQIE has a growth estimate of under -0.25.
For WCRRSARSWDKQY, the growth estimate was under -0.25.
LENDAL showed a growth estimate of under -0.25.
In the case of YVV, the growth estimate is reported as under -0.25.
CIKGPGGVTDTRDNS was tested, and the growth estimate was under -0.25.
TGQGGLLSDERQLNEDT was tested, and the growth estimate was under -0.25.
YCVSPLCETTTTPGLMYERS showed a growth estimate of under -0.25.
In the case of KYASIPDNVFGRR, the growth estimate is reported as 0.0805.
QSRVANR gave a growth estimate of under -0.25.
Work on TNH yielded a growth estimate of under -0.25.
APDWFGLRCRPLWITVPYGA showed a growth estimate of under -0.25.
Substance IAAHDNFSPFLVGWDIRP has a growth estimate of -0.08.
For LNL, the growth estimate was under -0.25.
SWHLSNAKPGGRLRGQMIAR was tested, and the growth estimate was under -0.25.
Work on QDAGQEARDGLPGATLTLRT yielded a growth estimate of under -0.25.
VLYG gave a growth estimate of under -0.25.
LPLQAAGGSVG was tested, and the growth estimate was under -0.25.
Work on EYGWITIIIVNDRIGQASYG yielded a growth estimate of under -0.25.
VVGNVPESERGRLAIGTSVS was tested, and the growth estimate was under -0.25.
For RCTTAPGPGASASQI, the growth estimate was under -0.25.
Work on SILEVCFMGEYPSCMTLMRG yielded a growth estimate of under -0.25.
Substance WPVVAVGQTHPVVGWYDRMR has a growth estimate of under -0.25.
For NLTLVQLFPGSCGTTVMACP, the growth estimate was under -0.25.
With SAVMISPSSSTRGSVQTSML the growth estimate was under -0.25.
AYGRLGWLTAVSHGVPSGAG gave a growth estimate of under -0.25.
CVGPRMFDFVLSCAASFALA showed a growth estimate of under -0.25.
RIASGTKFGPLLVRLETCHD showed a growth estimate of under -0.25.
QGHRLERRNSISVSEPYTKV was tested, and the growth estimate was under -0.25.
AVGLMGRGPCTFSLWWLSFG gave a growth estimate of under -0.25.
Substance KLNPVEG has a growth estimate of under -0.25.
With LHRSRVRLFVADLPENRAFG the growth estimate was under -0.25.
For AVTDARRGQGVQLWTGRTEL, the growth estimate was under -0.25.
TGELGGQVVLWRGGSPTAIY gave a growth estimate of under -0.25.
PEVCELFTGSPSIVRSGGDV gave a growth estimate of under -0.25.
NEAPERSCWAITRSWVSNSR was tested, and the growth estimate was under -0.25.
WTGCGSRQVSKKVVNERAMR was tested, and the growth estimate was under -0.25.
YGVQLHGTRGASLRRHNL gave a growth estimate of under -0.25.
KKLTRQQYRGRYSCHEGTIH showed a growth estimate of under -0.25.
In the case of TGDVLQARDVSGRS, the growth estimate is reported as under -0.25.
In the case of HIR, the growth estimate is reported as under -0.25.
TRVRQLVC gave a growth estimate of under -0.25.
RTAC showed a growth estimate of under -0.25.
With FQESIYV the growth estimate was under -0.25.
EFHSTW gave a growth estimate of under -0.25.
For SVGIRDSAYWVY, the growth estimate was under -0.25.
For QMKCYRP, the growth estimate was under -0.25.
IGPLVQGGRLAEVC was tested, and the growth estimate was under -0.25.
RNGIRRVWEGRVRPHSPRAG was tested, and the growth estimate was under -0.25.
PLIYIPQRIPGN showed a growth estimate of under -0.25.
DITT was tested, and the growth estimate was under -0.25.
Substance IKL has a growth estimate of under -0.25.
Substance QNIKLKNSPGSY has a growth estimate of under -0.25.
With TPCSGGEMPSLPRWRKWRTH the growth estimate was under -0.25.
For CGRQ, the growth estimate was under -0.25.
In the case of PPMLPSQGVTIIEFEVVSVG, the growth estimate is reported as under -0.25.
FFIAGL showed a growth estimate of under -0.25.
IRVGMTVKSAAHQWD was tested, and the growth estimate was under -0.25.
Substance ILKVSDGWFIVALQAQCKLT has a growth estimate of under -0.25.
In the case of PRPTRNRVPRFACGA, the growth estimate is reported as under -0.25.
AQGPHHIGSRESHCRTNTNL was tested, and the growth estimate was under -0.25.
Work on KPFATYPFHGPSFGIDGNRC yielded a growth estimate of under -0.25.
In the case of GPAGANWSWKVGHRPTLPPR, the growth estimate is reported as under -0.25.
AELSPSIIAVTKLRSHSSST showed a growth estimate of under -0.25.
TSTKRWVKDKQKPKHIGQKP was tested, and the growth estimate was under -0.25.
For RREGLFTGIVCTGIAPSTHT, the growth estimate was under -0.25.
With GKHNSKVFPCNWSARTSGVH the growth estimate was under -0.25.
VVPLLQREALNFLREASDLH gave a growth estimate of under -0.25.
YGIRAIRSANGAGQVLTM was tested, and the growth estimate was under -0.25.
With PAGPDTSCSFEHEGLMDASG the growth estimate was under -0.25.
In the case of YLTSYSRP, the growth estimate is reported as under -0.25.
Work on RLFNNGWAR yielded a growth estimate of under -0.25.
For CCVLASDQGRCMVNQAHAAL, the growth estimate was under -0.25.
In the case of VPRLVYFAIRFLAEI, the growth estimate is reported as under -0.25.
HALCLEGIRNSIVV gave a growth estimate of -0.246.
With SEVNFKALNI the growth estimate was under -0.25.
In the case of RRLVLSMGM, the growth estimate is reported as under -0.25.
In the case of DHVTISNGKVGAGLATSSCG, the growth estimate is reported as under -0.25.
For ITQ, the growth estimate was under -0.25.
In the case of GRSKLGIDVRKM, the growth estimate is reported as under -0.25.
In the case of LRDSFKTFSVWRLSVSQSLT, the growth estimate is reported as under -0.25.
